At least one compound was matched to its structure with a doubt left. Numbered stars: 1 amine (or outer) side, 2 acyl side, 3 side chain; on linkers, the order of the positions; unused ones are H or OH. Peptide text beside a SMILES is read from it. * marks the point of attachment. X5 = C[C@@H](O)[C@H](N)CN*; X6 = NC(=O)NC[C@H](CO)N*; CO = O=C([*:1])[*:2]
Tests used:
MDM2 = target: T1, MDM2 (Homo sapiens, UniProt Q00987); test: MDM2/p53 interaction HTRF assay; type: biochemical; settings: read-out: MDM2 EC50
T1 construct: GST-Flag-Mdm2 (AA1-188; GI:4505136)
Procedure: (§1) Functional Assay to Examine Bioactivity of MDM2 and MDMX Antagonists. The compounds were received dissolved in 100% DMSO at a final concentration of 10 mM and frozen. After complete defrosting and sonication, all compounds were diluted in 100% DMSO at both 0.4 mM, 0.04 and 0.004 mM, and distributed into two 96-well compounds daughter plates (Table 2).
(§2) Each compound was evaluated in duplicate on both (MDM2 or MDMX)/p53 interaction and on a positive TR-FRET control protein in a 384-well reaction plate. […] The reference compound Nutlin-3 is integrated in the compound daughter plate and was used under the same conditions.
(§3) HTRF (Homogeneous Time-Resolved Fluorescence) principle. The HTRF technology is based on time resolved fluorescence energy transfer (TR-FRET), which occurs between long-lived fluorophore Europium or Terbium Cryptates, and EuK or Tb respectively, as a donor and the allophycocyanin XL665, d2 or Red as acceptor. Many compounds and proteins present in biological fluids or serum are naturally fluorescent, and the use of conventional, prompt fluorescence leads to serious limitations in assay sensitivity. The use of long-lived fluorophore combined with time-resolved detection (a delay between excitation and emission detection) minimizes prompt fluorescence interference. […]

Chains of the proteins cited; added tags and fusions are not shown. Residues count along the entry.
UniProt Q00987, 1-188: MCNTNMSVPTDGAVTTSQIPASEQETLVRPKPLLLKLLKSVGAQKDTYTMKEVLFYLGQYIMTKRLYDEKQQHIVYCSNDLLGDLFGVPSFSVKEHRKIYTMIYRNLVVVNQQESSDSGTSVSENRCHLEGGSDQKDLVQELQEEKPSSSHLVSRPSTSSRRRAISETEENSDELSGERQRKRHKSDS

MDMX = target: T2, MDMX (Homo sapiens, UniProt O15151); test: MDMX/p53 interaction HTRF assay; type: biochemical; settings: read-out: MDMX EC50
T2 construct: GI:88702790)
T2 sequence (O15151 1-174): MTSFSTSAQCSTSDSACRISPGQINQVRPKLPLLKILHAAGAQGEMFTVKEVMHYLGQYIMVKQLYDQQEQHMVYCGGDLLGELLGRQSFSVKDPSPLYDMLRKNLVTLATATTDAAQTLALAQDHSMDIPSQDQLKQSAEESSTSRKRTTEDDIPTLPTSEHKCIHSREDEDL
Procedure: as §1, §2, §3

CC(C)C[C@H](NC(=O)[C@H](C)NC(=O)[C@H](Cc1c[nH]c2ccccc12)NC(=O)[C@H](Cc1ccc(O)cc1)NC(=O)[C@H](CCC(=O)O)NC(=O)[C@H](C)NC(=O)[C@H](Cc1ccccc1)NC(=O)[C@H](CO)NC(=O)NC[C@@H](N)[C@@H](C)O)C(=O)N[C@@H](CC(C)C)C(=O)N[C@@H](CO)CNC(N)=O [Compound 22] ({X5-CO}-SFAEYWALL-X6; N-terminus and C-terminus assumed)
EC50 (MDM2): 1.3 nM
EC50 (MDMX): 11.3 nM

— patent US11267861B2, “Peptide-oligourea foldamer compounds and methods of their use” (UREKA SARL, priority 2016, dated 2022)
